Laboratory results from paper PMC4170624.
No constants are given. Whether binding was seen depends on the method and setting. Sequences can lack the tags named with a protein.

Protein sequences, listed by entry. Tags and fused reporters are not part of them. Lines headed by an entry give the natural chain unless they say otherwise; changes in a name come on top.
UniProt P46109: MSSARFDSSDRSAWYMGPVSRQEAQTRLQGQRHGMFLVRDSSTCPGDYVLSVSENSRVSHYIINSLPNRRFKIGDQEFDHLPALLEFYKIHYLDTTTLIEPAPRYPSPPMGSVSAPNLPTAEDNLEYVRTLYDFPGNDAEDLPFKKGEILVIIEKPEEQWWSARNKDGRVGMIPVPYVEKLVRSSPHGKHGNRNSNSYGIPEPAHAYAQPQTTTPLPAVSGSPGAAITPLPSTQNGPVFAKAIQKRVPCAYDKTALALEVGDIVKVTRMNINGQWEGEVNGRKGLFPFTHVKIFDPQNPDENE

Target: T1, His6-pLASP1-Y171 (His6-LASP1 phosphorylated by ABL kinase) (human) (UniProt Q14847)
T1 sequence (chain, phosphotyrosine at 171): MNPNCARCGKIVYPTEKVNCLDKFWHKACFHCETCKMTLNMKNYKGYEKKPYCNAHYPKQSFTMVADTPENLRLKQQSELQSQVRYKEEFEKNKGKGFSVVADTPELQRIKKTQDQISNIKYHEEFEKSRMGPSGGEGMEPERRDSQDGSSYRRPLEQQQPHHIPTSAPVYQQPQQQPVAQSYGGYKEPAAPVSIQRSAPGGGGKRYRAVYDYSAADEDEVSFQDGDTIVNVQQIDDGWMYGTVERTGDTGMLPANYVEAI
Assay: condition: 1 μg GST-tagged protein overlaid on 0.2 μg blotted His6-LASP1 phosphorylated by ABL kinase; far-Western, overlay or dot blot; 0.2 μg His6-LASP1 or His6-LASP1 phosphorylated by ABL kinase blotted on nitrocellulose; overlaid overnight at 4°C with 1 μg GST-tagged proteins; detected with GST antibody; both purified

GST-CRKL-R39K (from UniProt P46109 1-303)
binding: no binding
